{"source": "PubChem BioAssay AID1259405 (NCATS, 2018)", "aim": "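Silenced genes that increase secreted GFP made by CHO cells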 (primary screen)", "cells": "Chinese hamster CHO-K1 ovary cells with stable secreted eGFP expression", "knock-down reagent": "single siRNA against mouse genes, 0.8 pmol siRNA per well (2 µl of 400 nM stock)", "timing": "3 days", "measurement": "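Percent of the per-plate non-targeting control median for intracellular GFP per well by laser scanning cytometry and for cell viability by ATP luminescence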", "reading the numbers": "GFP, % of control: higher = more GFP per well, higher productivity; viability (ATP), % of control: higher = more viable cells (more ATP)", "active means": "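Called active when intracellular GFP, relative to negative control, is at or above 120%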", "note": "Here is an unselected part of about 50,000 reagents. In the full data, about 4,000 (8%) are marked active. 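Mouse siRNA library applied to hamster cells; one well for each siRNA.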 The numbers tell different reagents against one gene apart."}
{"gene knocked down": "Tbc1d4 (TBC1 domain family, member 4)", "reagent": 1, "GFP, % of control": 83.2, "viability (ATP), % of control": 79.1, "call": "inactive"}
{"gene knocked down": "Tbc1d4 (TBC1 domain family, member 4)", "reagent": 2, "GFP, % of control": 59.3, "viability (ATP), % of control": 33, "call": "inactive"}
{"gene knocked down": "Tbc1d4 (TBC1 domain family, member 4)", "reagent": 3, "GFP, % of control": 64.1, "viability (ATP), % of control": 55.7, "call": "inactive"}
{"gene knocked down": "Slc2a5", "reagent": 1, "GFP, % of control": 46.2, "viability (ATP), % of control": 97.3, "call": "inactive"}
{"gene knocked down": "Slc2a5", "reagent": 2, "GFP, % of control": 84.8, "viability (ATP), % of control": 93.3, "call": "inactive"}
{"gene knocked down": "Slc2a5", "reagent": 3, "GFP, % of control": 66.5, "viability (ATP), % of control": 67.7, "call": "inactive"}
{"gene knocked down": "Nrn1l (neuritin 1-like)", "reagent": 1, "GFP, % of control": 77.3, "viability (ATP), % of control": 101, "call": "inactive"}
{"gene knocked down": "Nrn1l (neuritin 1-like)", "reagent": 2, "GFP, % of control": 62.1, "viability (ATP), % of control": 60.7, "call": "inactive"}
{"gene knocked down": "Nrn1l (neuritin 1-like)", "reagent": 3, "GFP, % of control": 132, "viability (ATP), % of control": 51.9, "call": "active"}
{"gene knocked down": "Scara5 (scavenger receptor class A, member 5)", "reagent": 1, "GFP, % of control": 157, "viability (ATP), % of control": 148, "call": "active"}
{"gene knocked down": "Scara5 (scavenger receptor class A, member 5)", "reagent": 2, "GFP, % of control": 48.1, "viability (ATP), % of control": 61.9, "call": "inactive"}
{"gene knocked down": "Cog6 (component of oligomeric golgi complex 6)", "reagent": 1, "GFP, % of control": 108, "viability (ATP), % of control": 99, "call": "inactive"}
{"gene knocked down": "Cog6 (component of oligomeric golgi complex 6)", "reagent": 2, "GFP, % of control": 82.6, "viability (ATP), % of control": 77.3, "call": "inactive"}
{"gene knocked down": "Cog6 (component of oligomeric golgi complex 6)", "reagent": 3, "GFP, % of control": 51.4, "viability (ATP), % of control": 90.7, "call": "inactive"}
{"gene knocked down": "Xpnpep2 (X-prolyl aminopeptidase (aminopeptidase P) 2, membrane-bound)", "reagent": 1, "GFP, % of control": 80.3, "viability (ATP), % of control": 76.4, "call": "inactive"}
{"gene knocked down": "Xpnpep2 (X-prolyl aminopeptidase (aminopeptidase P) 2, membrane-bound)", "reagent": 2, "GFP, % of control": 84.8, "viability (ATP), % of control": 68.8, "call": "inactive"}
{"gene knocked down": "Xpnpep2 (X-prolyl aminopeptidase (aminopeptidase P) 2, membrane-bound)", "reagent": 3, "GFP, % of control": 52.1, "viability (ATP), % of control": 52.2, "call": "inactive"}

Active calls, of those listed so far:
{"gene knocked down": "Nrn1l (neuritin 1-like)", "reagent": 3, "GFP, % of control": 132, "viability (ATP), % of control": 51.9, "call": "active"}
{"gene knocked down": "Scara5 (scavenger receptor class A, member 5)", "reagent": 1, "GFP, % of control": 157, "viability (ATP), % of control": 148, "call": "active"}
